Data reported in the supplement of paper PMC10849652.
This is one part of the list.

By UniProt entry, the sequences of proteins in these tests, tags left out. Where a name states a change or a piece, a line headed by the entry shows the natural chain unless it says otherwise.
UniProt Q8N5I2: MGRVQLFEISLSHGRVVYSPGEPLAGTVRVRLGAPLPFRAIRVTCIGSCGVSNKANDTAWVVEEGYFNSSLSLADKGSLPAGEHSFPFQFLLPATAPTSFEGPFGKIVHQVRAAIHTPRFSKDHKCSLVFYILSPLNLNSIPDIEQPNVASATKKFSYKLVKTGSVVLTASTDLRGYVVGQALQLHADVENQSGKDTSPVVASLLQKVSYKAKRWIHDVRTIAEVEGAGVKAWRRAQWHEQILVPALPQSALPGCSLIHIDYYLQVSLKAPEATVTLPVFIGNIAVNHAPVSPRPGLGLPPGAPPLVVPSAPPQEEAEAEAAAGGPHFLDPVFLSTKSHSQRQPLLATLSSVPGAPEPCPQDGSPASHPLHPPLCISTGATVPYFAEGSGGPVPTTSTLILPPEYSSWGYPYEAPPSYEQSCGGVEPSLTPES
UniProt Q9NP61: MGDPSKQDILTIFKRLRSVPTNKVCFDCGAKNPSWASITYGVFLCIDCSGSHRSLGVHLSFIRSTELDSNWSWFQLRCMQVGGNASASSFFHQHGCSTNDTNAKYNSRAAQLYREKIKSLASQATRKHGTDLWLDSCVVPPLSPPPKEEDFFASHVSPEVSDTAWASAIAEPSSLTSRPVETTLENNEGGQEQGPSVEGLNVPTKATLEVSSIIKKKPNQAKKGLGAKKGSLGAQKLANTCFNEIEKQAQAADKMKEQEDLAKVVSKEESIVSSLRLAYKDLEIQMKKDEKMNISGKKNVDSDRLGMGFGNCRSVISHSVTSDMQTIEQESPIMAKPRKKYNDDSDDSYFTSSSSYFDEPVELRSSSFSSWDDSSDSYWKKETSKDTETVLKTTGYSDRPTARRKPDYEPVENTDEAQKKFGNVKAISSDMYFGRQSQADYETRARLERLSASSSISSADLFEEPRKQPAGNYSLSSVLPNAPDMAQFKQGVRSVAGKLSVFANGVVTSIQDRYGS
UniProt P15289: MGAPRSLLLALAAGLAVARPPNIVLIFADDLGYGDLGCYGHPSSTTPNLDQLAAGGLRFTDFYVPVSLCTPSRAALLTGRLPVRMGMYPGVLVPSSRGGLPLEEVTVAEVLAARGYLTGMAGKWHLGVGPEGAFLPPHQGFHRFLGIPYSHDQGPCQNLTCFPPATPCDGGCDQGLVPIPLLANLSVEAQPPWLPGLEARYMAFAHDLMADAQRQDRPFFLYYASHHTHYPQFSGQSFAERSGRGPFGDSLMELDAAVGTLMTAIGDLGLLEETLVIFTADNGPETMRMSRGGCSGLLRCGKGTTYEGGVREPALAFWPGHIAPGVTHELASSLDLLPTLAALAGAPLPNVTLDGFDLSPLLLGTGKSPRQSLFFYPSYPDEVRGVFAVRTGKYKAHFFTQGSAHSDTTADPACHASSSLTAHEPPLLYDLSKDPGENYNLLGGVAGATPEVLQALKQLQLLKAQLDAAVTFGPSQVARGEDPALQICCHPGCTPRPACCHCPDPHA
UniProt Q13510, whole entry, looked up: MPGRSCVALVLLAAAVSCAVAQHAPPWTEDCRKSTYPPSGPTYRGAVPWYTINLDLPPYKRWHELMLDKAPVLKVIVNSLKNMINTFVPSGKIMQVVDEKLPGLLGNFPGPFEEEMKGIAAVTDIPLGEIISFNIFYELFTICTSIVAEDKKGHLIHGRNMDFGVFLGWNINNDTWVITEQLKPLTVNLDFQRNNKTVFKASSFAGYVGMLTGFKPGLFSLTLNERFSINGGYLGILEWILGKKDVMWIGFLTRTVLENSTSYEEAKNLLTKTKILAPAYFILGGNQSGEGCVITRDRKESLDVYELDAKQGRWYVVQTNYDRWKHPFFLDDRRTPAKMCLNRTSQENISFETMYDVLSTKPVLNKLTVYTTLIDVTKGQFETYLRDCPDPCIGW
UniProt P10398: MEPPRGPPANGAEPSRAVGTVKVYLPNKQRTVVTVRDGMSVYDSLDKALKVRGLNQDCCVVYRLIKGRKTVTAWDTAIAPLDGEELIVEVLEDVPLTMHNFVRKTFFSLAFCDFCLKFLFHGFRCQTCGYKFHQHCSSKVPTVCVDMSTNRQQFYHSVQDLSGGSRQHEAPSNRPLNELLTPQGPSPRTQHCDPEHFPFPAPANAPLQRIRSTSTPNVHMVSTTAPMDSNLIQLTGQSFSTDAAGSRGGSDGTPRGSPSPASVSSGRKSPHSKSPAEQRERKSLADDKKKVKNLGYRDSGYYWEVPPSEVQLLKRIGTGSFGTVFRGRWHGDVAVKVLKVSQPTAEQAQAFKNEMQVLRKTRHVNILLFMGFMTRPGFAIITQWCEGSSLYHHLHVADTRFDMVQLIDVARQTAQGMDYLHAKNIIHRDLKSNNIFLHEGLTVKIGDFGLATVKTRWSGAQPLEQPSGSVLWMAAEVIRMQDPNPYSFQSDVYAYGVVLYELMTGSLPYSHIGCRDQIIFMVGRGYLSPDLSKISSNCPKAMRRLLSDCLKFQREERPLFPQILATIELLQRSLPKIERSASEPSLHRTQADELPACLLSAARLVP
UniProt O43299: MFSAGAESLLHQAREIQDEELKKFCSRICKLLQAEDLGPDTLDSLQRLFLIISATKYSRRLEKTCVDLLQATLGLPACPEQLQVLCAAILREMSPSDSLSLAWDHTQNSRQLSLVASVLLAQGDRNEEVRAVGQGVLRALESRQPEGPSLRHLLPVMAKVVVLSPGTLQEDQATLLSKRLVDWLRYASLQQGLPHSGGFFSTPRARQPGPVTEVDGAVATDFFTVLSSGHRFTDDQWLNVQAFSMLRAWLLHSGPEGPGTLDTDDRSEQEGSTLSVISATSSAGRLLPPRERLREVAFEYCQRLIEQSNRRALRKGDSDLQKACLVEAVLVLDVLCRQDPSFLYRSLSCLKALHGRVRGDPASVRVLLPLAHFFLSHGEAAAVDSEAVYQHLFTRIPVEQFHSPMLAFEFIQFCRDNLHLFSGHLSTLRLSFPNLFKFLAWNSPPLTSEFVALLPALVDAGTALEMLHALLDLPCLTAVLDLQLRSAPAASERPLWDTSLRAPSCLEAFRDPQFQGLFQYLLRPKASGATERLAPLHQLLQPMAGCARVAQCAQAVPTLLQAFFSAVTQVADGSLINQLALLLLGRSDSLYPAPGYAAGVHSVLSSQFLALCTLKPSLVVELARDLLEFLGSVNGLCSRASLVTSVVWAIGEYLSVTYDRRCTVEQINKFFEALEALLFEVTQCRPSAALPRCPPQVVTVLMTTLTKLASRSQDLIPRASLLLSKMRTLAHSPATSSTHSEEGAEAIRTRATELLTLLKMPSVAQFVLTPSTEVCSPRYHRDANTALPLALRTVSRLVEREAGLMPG
UniProt P18085: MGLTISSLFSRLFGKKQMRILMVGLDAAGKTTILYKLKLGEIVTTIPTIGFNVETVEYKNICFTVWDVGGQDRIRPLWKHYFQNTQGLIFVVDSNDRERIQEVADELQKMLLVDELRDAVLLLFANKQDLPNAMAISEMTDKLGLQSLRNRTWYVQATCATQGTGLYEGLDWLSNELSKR
UniProt Q9H0R1: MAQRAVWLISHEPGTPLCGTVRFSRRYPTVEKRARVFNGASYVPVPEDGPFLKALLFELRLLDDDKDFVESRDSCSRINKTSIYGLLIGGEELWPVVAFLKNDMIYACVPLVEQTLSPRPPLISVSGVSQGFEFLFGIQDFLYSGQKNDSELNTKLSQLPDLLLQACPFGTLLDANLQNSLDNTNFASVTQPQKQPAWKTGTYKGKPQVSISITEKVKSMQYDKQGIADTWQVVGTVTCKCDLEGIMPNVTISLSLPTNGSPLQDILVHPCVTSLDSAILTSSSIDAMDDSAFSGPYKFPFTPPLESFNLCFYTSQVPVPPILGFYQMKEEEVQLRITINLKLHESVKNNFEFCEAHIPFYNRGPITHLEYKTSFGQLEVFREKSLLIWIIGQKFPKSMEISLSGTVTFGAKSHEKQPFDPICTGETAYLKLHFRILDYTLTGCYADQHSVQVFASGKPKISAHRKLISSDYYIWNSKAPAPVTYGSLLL
UniProt Q8N392: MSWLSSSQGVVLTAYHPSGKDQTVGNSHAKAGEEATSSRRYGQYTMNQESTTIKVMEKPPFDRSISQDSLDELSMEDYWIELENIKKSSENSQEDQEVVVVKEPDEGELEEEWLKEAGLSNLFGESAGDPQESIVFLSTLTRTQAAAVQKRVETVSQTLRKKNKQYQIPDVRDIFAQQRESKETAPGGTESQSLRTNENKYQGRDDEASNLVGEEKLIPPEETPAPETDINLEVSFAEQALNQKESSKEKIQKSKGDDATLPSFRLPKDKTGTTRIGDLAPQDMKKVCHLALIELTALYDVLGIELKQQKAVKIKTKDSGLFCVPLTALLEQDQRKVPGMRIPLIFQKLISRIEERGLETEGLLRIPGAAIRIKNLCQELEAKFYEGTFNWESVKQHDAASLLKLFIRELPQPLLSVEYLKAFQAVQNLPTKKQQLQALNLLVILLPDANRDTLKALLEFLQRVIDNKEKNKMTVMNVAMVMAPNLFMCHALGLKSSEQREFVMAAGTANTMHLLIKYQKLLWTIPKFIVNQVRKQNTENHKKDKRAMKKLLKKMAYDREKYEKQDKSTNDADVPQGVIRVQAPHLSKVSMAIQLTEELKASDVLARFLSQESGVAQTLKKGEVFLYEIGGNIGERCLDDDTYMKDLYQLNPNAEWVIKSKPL
UniProt Q66PJ3: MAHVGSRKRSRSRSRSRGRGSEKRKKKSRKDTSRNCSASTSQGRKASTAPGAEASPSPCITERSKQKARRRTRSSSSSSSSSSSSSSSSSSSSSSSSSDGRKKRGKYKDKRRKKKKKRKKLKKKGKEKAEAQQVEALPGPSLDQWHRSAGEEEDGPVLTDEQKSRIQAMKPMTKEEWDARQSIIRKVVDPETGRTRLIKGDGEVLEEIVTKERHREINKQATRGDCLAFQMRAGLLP
UniProt Q07960: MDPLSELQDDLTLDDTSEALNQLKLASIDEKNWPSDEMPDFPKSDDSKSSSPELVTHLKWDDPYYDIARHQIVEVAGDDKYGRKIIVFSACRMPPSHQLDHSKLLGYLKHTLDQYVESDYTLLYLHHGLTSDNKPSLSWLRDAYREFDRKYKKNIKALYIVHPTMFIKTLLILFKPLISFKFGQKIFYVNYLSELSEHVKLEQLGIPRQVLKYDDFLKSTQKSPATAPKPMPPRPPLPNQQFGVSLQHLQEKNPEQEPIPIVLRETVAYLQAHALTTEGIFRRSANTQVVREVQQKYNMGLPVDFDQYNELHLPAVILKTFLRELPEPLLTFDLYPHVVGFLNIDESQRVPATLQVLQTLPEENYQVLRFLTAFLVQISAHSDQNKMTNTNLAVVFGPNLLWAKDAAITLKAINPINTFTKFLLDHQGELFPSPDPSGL
UniProt O14727: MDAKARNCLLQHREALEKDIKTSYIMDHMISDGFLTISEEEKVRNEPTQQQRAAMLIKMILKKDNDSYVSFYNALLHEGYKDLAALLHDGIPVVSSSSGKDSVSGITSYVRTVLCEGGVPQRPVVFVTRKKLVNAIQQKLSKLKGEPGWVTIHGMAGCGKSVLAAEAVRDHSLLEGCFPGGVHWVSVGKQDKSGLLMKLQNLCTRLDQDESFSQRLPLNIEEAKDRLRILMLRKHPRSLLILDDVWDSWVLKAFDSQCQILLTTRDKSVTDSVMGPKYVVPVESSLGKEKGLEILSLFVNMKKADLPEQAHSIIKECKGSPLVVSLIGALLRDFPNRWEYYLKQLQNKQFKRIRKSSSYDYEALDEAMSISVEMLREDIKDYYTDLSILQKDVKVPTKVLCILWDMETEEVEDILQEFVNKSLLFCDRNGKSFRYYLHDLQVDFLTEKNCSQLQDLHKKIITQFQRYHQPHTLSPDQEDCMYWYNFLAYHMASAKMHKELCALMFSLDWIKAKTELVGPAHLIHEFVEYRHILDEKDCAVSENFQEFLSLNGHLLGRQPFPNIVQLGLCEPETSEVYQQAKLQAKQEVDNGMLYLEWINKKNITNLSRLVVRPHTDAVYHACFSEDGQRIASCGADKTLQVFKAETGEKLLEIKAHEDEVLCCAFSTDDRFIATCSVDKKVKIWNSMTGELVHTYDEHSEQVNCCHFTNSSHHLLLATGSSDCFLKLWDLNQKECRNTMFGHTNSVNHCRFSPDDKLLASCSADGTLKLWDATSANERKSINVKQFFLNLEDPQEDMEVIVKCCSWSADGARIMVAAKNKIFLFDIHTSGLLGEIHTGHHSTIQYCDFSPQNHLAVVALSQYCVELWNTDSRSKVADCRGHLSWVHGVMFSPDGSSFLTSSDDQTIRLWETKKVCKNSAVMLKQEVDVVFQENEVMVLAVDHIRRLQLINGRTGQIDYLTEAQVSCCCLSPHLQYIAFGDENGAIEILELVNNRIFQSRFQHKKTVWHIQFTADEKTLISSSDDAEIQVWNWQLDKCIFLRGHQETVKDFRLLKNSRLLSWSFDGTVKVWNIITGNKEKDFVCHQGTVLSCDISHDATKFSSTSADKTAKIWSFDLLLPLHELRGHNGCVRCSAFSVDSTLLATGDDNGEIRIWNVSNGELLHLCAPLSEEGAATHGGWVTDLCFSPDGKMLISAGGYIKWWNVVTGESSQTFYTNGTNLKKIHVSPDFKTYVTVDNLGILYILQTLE

What was measured:
Test in all cases: log2 fold change, soluble protein after heating vs DMSO (PISA); higher = thermal stabilisation; K562 lysate, 10 uM; active = over 0.2 and 3.5 SD of the protein, either way, in both replicates (recomputed)
erlotinib = compound: C#Cc1cccc(Nc2ncnc3cc(OCCOC)c(OCCOC)cc23)c1 [erlotinib]
Outline: (§1)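 K562 pellets were dounce-homogenised in PBS pH 7.4 containing 1 mM MgCl2, and the crude extract, at 1 mg/mL protein, was exposed to 10 μM compound for 30 min. Aliquots were heated for 3 min across 48°C-58°C, pooled, brought to 0.5% NP-40 at 4°C and spun at 21,000xg for 90 min, with the supernatant taken as soluble protein. TMTpro 16plex LC-MS/MS with equalised channel sums quantified that protein. Values are log-two fold changes in thermal stability relative to solvent controls, taken from duplicates.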

[1] = compound: C/C(=N\NC(=O)C1=CC(=CC=C1)S(=O)(=O)N2CCOCC2)/C3=C(C=CC(=C3)Cl)O
Outline: as §1

[2] = compound: C1=CC(=CC=C1C2=NC3=C(N2)C=C(C=C3)C(=O)N)OC4=CC=C(C=C4)Cl
Outline: as §1

[3] = compound: C1=CC2=C(C=CC(=C2)/C=C\3/C(=O)NC(=NCC4=CC=CS4)S3)N=C1
Outline: as §1

[4] = compound: C1=CC2=NC=CN=C2C=C1/C=C/3\C(=O)NC(=O)S3
Outline: as §1

[5] = compound: C1=CC=C(C=C1)C2=NC(=C(N2)C3=CC=NC=C3)C4=CC(=C(C=C4)Cl)O
Outline: as §1

[6] = compound: C1=CC=C2C(=C1)C3=NNC4=CC=CC(=C43)C2=O
Outline: as §1

[7] = compound: C1CCN(C1)C(=O)NC2=CC=CC(=C2)NC3=NC=C(C(=N3)NCCC4=CN=CN4)Br
Outline: as §1

[8] = compound: C1CN(CCC1(CC2=CC=C(C=C2)Cl)N)C3=NC=NC4=C3C=CN4
Outline: as §1

IRAK-1-4 Inhibitor I = compound: C1COCCN1CCN2C3=CC=CC=C3N=C2NC(=O)C4=CC(=CC=C4)[N+](=O)[O-] [IRAK-1-4 Inhibitor I]
Outline: as §1

Measured: log2 fold change

ARAP1 (UniProt Q96P48)
inactive: erlotinib 0.003 | [1] -0.164 | [2] -0.041 | [3] 0.024 | [4] 0.022 | [5] 0.022 | [6] 0.013 | [7] -0.01 | [8] -0.007 | IRAK-1-4 Inhibitor I 0.008

ARRDC1 (UniProt Q8N5I2)
inactive: erlotinib 0.029 | [1] -0.044 | [2] -0.032 | [3] 0.038 | [4] 0.042 | [5] -0.082 | [6] 0.076 | [7] 0.035 | [8] 0.015 | IRAK-1-4 Inhibitor I -0.096

ARFGAP3 (UniProt Q9NP61)
inactive: erlotinib -0.002 | [1] -0.021 | [2] 0.04 | [3] 0.017 | [4] -0.049 | [5] -0.005 | [6] 0.015 | [7] -0.02 | [8] 0.009 | IRAK-1-4 Inhibitor I -0.008

ARSA (UniProt P15289)
inactive: erlotinib -0.133 | [1] 0.033 | [2] -0.002 | [3] 0.001 | [4] -0.033 | [5] 0.037 | [6] -0.039 | [7] -0.02 | [8] 0.006 | IRAK-1-4 Inhibitor I -0.004

ASAH1 isoform 2 (UniProt Q13510)
inactive: erlotinib 0.02 | [1] -0.062 | [2] 0.036 | [3] -0.03 | [4] -0.041 | [5] -0.027 | [6] 0.027 | [7] 0.034 | [8] 0.011 | IRAK-1-4 Inhibitor I 0.016

APOE (UniProt P02649)
inactive: erlotinib 0.029 | [1] -0.025 | [2] 0.028 | [3] -0.016 | [4] 0.02 | [5] -0.002 | [6] 0.046 | [7] -0.1 | [8] 0.005 | IRAK-1-4 Inhibitor I 0.042

ARG2 (UniProt P78540)
inactive: erlotinib -0.006 | [1] -0.011 | [2] 0.034 | [3] 0.019 | [4] -0.011 | [5] 0.043 | [6] -0.038 | [7] -0.03 | [8] 0.023 | IRAK-1-4 Inhibitor I 0.007

2 entries drawn at random from the list so far:
ARRDC1 (UniProt Q8N5I2)
inactive: erlotinib 0.029 | [1] -0.044 | [2] -0.032 | [3] 0.038 | [4] 0.042 | [5] -0.082 | [6] 0.076 | [7] 0.035 | [8] 0.015 | IRAK-1-4 Inhibitor I -0.096

ARFGAP3 (UniProt Q9NP61)
inactive: erlotinib -0.002 | [1] -0.021 | [2] 0.04 | [3] 0.017 | [4] -0.049 | [5] -0.005 | [6] 0.015 | [7] -0.02 | [8] 0.009 | IRAK-1-4 Inhibitor I -0.008

(further entries)

ARAF (UniProt P10398)
inactive: erlotinib -0.002 | [1] -0.129 | [2] -0.018 | [3] 0.014 | [4] -0.046 | [5] 0.067 | [6] 0.03 | [7] 0.012 | [8] -0.049 | IRAK-1-4 Inhibitor I -0.02

ARF5 (UniProt P84085)
inactive: erlotinib -0.03 | [1] -0.025 | [2] 0.053 | [3] 0.012 | [4] -0.057 | [5] -0.008 | [6] 0.008 | [7] -0.067 | [8] 0.003 | IRAK-1-4 Inhibitor I 0.011

AP5Z1 (UniProt O43299)
inactive: erlotinib 0.024 | [1] -0.023 | [2] 0.029 | [3] -0.043 | [4] 0 | [5] -0.004 | [6] -0.061 | [7] -0.06 | [8] 0.064 | IRAK-1-4 Inhibitor I 0.065

ARF4 (UniProt P18085)
inactive: erlotinib -0.052 | [1] -0.018 | [2] 0.004 | [3] -0.009 | [4] -0.001 | [5] -0.039 | [6] 0.025 | [7] -0.074 | [8] 0.006 | IRAK-1-4 Inhibitor I -0.017

ARHGEF7 isoform 5 (UniProt Q14155)
inactive: erlotinib 0 | [1] -0.025 | [2] 0.015 | [3] 0.03 | [4] 0.027 | [5] 0.038 | [6] 0.094 | [7] -0.027 | [8] 0.024 | IRAK-1-4 Inhibitor I 0.009

ARMC1 (UniProt Q9NVT9)
inactive: erlotinib -0.014 | [1] -0.003 | [2] -0.011 | [3] -0.037 | [4] 0.004 | [5] 0.011 | [6] -0.049 | [7] -0.06 | [8] 0 | IRAK-1-4 Inhibitor I -0.003

APOBEC3C (UniProt Q9NRW3)
inactive: erlotinib 0.054 | [1] 0.058 | [2] -0.029 | [3] 0.066 | [4] 0.056 | [5] -0.017 | [6] 0.015 | [7] 0.031 | [8] -0.003 | IRAK-1-4 Inhibitor I 0.038

ARHGAP5 (UniProt Q13017)
inactive: erlotinib 0.016 | [1] -0.027 | [2] -0.047 | [3] 0.045 | [4] -0.053 | [5] -0.032 | [6] -0.027 | [7] -0.018 | [8] 0.039 | IRAK-1-4 Inhibitor I -0.03

ARPC3 (UniProt O15145)
inactive: erlotinib -0.066 | [1] -0.026 | [2] -0.017 | [3] -0.014 | [4] 0.02 | [5] -0.033 | [6] 0.021 | [7] 0.004 | [8] -0.024 | IRAK-1-4 Inhibitor I -0.03

ARHGAP4 isoform 2 (UniProt P98171)
inactive: erlotinib 0.034 | [1] 0.103 | [2] -0.014 | [3] 0.009 | [4] 0.051 | [5] -0.006 | [6] -0.023 | [7] -0.002 | [8] 0 | IRAK-1-4 Inhibitor I 0.012

ARID1B isoform 3 (UniProt Q8NFD5)
inactive: erlotinib 0.064 | [1] 0.065 | [2] 0.047 | [3] 0.029 | [4] 0.016 | [5] -0.001 | [6] -0.019 | [7] -0.015 | [8] -0.035 | IRAK-1-4 Inhibitor I 0.02

AP5M1 (UniProt Q9H0R1)
inactive: erlotinib -0.08 | [1] 0.196 | [2] 0.002 | [3] -0.102 | [4] 0.199 | [5] -0.013 | [6] -0.173 | [7] 0.047 | [8] 0.013 | IRAK-1-4 Inhibitor I 0.038

ARIH1 (UniProt Q9Y4X5)
inactive: erlotinib 0.016 | [1] -0.001 | [2] 0 | [3] 0.014 | [4] 0.003 | [5] 0.035 | [6] 0.024 | [7] -0.006 | [8] -0.015 | IRAK-1-4 Inhibitor I 0.002

ARFGEF1 (UniProt Q9Y6D6)
inactive: erlotinib 0.008 | [1] 0.003 | [2] -0.023 | [3] 0.017 | [4] -0.006 | [5] -0.006 | [6] -0.044 | [7] -0.015 | [8] -0.004 | IRAK-1-4 Inhibitor I 0.005

ARHGAP18 (UniProt Q8N392)
inactive: erlotinib 0.014 | [1] 0.036 | [2] -0.003 | [3] -0.014 | [4] -0.027 | [5] -0.017 | [6] 0.021 | [7] -0.018 | [8] -0.012 | IRAK-1-4 Inhibitor I 0.025

ARRB2 isoform 3 (UniProt P32121)
inactive: erlotinib -0.015 | [1] -0.04 | [2] -0.027 | [3] -0.002 | [4] 0.014 | [5] -0.005 | [6] -0.001 | [7] 0.029 | [8] 0.008 | IRAK-1-4 Inhibitor I -0.006

ARL6IP4 (UniProt Q66PJ3)
inactive: erlotinib -0.003 | [1] -0.114 | [2] 0.06 | [3] -0.122 | [4] 0.008 | [5] 0.004 | [6] -0.008 | [7] 0.047 | [8] 0.055 | IRAK-1-4 Inhibitor I 0.021

ARHGAP1 (UniProt Q07960)
inactive: erlotinib -0.031 | [1] 0.021 | [2] 0.024 | [3] 0.016 | [4] -0.03 | [5] -0.005 | [6] 0.01 | [7] -0.001 | [8] -0.002 | IRAK-1-4 Inhibitor I 0.006

APOA1 (UniProt P02647)
inactive: erlotinib -0.015 | [1] -0.095 | [2] -0.085 | [3] 0.045 | [4] 0.045 | [5] 0.269 | [6] -0.015 | [7] 0.072 | [8] -0.009 | IRAK-1-4 Inhibitor I -0.015

APC (UniProt P25054)
inactive: erlotinib 0.018 | [1] -0.166 | [2] -0.034 | [3] 0.111 | [4] -0.052 | [5] 0.012 | [6] 0.06 | [7] -0.026 | [8] -0.051 | IRAK-1-4 Inhibitor I 0.018

APAF1 (UniProt O14727)
inactive: erlotinib 0.005 | [1] 0.084 | [2] -0.054 | [3] 0.019 | [4] -0.016 | [5] -0.029 | [6] -0.003 | [7] 0.022 | [8] 0.015 | IRAK-1-4 Inhibitor I -0.021

APEX1 (UniProt P27695)
inactive: erlotinib 0.026 | [1] 0.011 | [2] -0.011 | [3] 0.016 | [4] 0 | [5] 0.004 | [6] -0.072 | [7] 0 | [8] 0.003 | IRAK-1-4 Inhibitor I -0.007
